Assay results taken from US20100183640A1.
Results are given in words; binding and its absence hold for the method and conditions named. Some results given as binding are weak or reduced against the parent protein; the word gives no strength.

Amino acid sequences for entries named in this document (tags omitted). A change or cut given only in a name is not applied to a line headed by its entry. Chains listed by the source or under a name are the forms on record and can include a tag or linker. Residues count along the entry.
Superfibronectin (recombinant C-terminal 70 amino acid part of the fibronectin type III.1 domain) (P02751, residues 627-702): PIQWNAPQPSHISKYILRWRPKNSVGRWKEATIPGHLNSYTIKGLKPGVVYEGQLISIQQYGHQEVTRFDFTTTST
40 kDa chymotryptic fragment of human fibronectin (P02751, residues 1815-2202): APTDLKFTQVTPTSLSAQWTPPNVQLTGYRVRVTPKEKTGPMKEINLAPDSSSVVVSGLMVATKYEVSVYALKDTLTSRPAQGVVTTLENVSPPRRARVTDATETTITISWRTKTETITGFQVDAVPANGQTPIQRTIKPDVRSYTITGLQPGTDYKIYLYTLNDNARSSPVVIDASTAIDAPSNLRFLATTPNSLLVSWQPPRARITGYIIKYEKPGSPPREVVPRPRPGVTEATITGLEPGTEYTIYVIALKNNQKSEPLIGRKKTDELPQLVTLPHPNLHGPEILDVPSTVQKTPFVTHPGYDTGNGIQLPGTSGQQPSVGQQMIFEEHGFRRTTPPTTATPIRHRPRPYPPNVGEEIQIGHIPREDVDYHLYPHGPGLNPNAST
120 kDa chymotryptic fragment of human fibronectin (P02751, form named): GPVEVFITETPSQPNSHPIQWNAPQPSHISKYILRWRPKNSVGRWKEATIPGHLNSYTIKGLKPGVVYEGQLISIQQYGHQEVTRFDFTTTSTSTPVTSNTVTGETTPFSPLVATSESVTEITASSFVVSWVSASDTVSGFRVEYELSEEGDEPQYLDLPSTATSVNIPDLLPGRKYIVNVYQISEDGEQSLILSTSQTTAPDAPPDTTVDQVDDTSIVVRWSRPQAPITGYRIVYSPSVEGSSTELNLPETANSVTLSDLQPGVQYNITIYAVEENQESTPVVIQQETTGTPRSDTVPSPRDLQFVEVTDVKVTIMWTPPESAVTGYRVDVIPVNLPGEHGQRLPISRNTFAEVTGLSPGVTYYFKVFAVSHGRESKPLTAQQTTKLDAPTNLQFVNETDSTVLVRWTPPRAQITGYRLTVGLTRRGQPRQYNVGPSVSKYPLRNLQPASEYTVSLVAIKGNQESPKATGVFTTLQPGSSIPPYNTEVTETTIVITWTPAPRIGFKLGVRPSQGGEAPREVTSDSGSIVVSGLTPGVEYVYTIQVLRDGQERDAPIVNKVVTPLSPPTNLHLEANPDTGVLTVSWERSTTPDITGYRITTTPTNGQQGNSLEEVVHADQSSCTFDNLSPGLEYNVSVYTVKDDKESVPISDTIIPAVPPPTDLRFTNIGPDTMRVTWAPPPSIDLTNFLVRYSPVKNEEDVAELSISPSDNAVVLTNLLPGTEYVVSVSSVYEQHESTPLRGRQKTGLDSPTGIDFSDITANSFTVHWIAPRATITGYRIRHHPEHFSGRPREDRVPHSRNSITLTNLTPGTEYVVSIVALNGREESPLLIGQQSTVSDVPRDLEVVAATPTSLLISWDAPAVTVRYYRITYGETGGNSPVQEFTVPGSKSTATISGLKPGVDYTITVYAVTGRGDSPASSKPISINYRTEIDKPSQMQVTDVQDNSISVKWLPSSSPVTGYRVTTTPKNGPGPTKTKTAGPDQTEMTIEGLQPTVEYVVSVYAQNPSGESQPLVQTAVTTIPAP

Columns and labels:
[1] = target: 40 kDa chymotryptic fragment of human fibronectin (human) (UniProt P02751); test: ELISA, coated fibronectin species
[2] = target: 120 kDa chymotryptic fragment of human fibronectin (human) (UniProt P02751); test: ELISA, coated fibronectin species
CD148 (human) = target: T1, CD148 (human) (UniProt Q12913); test: rhUG-Sepharose affinity column, Hfl-1 lysate, elution with 0.5 M NaCl, Western blot
T1 sequence (looked up): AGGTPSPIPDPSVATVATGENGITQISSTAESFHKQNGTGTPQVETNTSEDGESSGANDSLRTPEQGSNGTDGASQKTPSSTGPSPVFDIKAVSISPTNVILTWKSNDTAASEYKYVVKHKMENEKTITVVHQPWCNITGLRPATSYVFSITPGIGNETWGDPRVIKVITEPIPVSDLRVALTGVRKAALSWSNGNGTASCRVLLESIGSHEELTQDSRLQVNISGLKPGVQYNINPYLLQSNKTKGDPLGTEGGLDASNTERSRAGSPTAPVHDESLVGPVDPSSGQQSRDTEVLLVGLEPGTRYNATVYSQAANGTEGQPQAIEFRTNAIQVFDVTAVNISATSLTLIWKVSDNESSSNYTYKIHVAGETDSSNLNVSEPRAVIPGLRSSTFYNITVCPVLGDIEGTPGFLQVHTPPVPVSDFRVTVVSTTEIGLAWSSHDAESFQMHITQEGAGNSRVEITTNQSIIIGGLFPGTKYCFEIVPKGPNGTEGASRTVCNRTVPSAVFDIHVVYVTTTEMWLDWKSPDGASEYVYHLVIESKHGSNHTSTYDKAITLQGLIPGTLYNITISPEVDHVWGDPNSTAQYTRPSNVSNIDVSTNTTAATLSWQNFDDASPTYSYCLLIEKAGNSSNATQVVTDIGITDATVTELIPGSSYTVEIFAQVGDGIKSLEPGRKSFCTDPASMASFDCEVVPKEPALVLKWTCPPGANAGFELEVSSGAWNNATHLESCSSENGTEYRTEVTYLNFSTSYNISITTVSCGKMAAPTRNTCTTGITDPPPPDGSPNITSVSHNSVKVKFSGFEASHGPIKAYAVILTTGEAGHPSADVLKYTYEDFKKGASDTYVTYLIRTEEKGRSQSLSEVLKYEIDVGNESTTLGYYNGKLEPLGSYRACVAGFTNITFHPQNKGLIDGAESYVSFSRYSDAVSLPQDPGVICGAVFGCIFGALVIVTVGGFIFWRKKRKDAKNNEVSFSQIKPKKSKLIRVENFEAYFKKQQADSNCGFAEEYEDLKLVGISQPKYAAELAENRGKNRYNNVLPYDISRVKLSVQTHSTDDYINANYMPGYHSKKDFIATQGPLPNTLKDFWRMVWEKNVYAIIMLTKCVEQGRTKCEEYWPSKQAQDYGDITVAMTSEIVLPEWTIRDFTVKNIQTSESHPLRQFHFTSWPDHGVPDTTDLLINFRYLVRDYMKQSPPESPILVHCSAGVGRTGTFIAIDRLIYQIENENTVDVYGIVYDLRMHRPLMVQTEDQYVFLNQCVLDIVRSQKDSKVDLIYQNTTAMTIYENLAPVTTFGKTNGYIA

[3] = target: 40 kDa chymotryptic fragment of human fibronectin (human) (UniProt P02751); test: ELISA, 5 micrograms/well fragment coated, 250 ng rhUG/well, anti-UG detection
[4] = target: 120 kDa chymotryptic fragment of human fibronectin (human) (UniProt P02751); test: as above
[5] = target: 40 kDa chymotryptic fragment of human fibronectin (human) (UniProt P02751); test: ELISA, coated fibronectin fragments
[6] = target: 120 kDa chymotryptic fragment of human fibronectin (human) (UniProt P02751); test: ELISA, coated fibronectin fragments
[7] = target: 40 kDa chymotryptic fragment of human fibronectin (human) (UniProt P02751); test: ELISA, fragment coated, rhUG titrated, anti-UG detection
[8] = target: Superfibronectin (recombinant C-terminal 70 amino acid part of the fibronectin type III.1 domain) (human) (UniProt P02751); test: ELISA, 5 micrograms/well superfibronectin coated, 250 ng rhUG/well, anti-UG detection
[9] = target: Superfibronectin (recombinant C-terminal 70 amino acid part of the fibronectin type III.1 domain) (human) (UniProt P02751); test: ELISA titration, 1 microgram/well coated, 2.7 mM CaCl2
[10] = target: 40 kDa chymotryptic fragment of human fibronectin (human) (UniProt P02751); test: as above

Measured: binding

B1: recombinant human uteroglobin (ligand)
chain: EICPSFQRVIETLLMDTPSSYEAAMELFSPDQDMREAGAQLKKLVDTLPQKPRESIIKLMEKIAQSSLCN
binds: [1] | [2] | CD148 (human) | [3] | [4] | [5] | [6] | [7] | [8] | [9] | [10]
